Consider two molecules from article PMC4991465.

Results are given in words; binding and its absence hold for the method and conditions named. Binding seen in cells or lysates may run through a third protein. Binding calls can cover weak binding; strength is not graded here.

Assay [1] has as its target T1, endogenous Cdc25A (human (endogenous in HEK 293T)) (UniProt P30304).
T1 sequence: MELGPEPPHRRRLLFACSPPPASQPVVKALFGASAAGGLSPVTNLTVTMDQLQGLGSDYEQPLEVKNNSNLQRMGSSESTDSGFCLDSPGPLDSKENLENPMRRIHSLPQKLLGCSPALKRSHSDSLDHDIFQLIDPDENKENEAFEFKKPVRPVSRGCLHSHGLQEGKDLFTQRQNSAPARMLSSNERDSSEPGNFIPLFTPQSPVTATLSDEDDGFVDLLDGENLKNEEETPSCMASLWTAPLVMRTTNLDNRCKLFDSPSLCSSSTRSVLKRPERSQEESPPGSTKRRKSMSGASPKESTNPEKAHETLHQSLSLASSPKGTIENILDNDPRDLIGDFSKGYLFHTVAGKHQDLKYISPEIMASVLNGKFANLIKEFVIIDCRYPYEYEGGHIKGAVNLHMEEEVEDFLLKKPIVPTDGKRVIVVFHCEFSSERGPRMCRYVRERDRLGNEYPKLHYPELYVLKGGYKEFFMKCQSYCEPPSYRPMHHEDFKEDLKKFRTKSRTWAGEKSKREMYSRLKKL
Nature of the assay: co-IP; endogenous proteins, HEK 293T lysates in RIPA buffer with DNase I; anti-Cdc25A, anti-ARD1 or anti-HDAC11 with Protein G Plus/Protein A beads, 18 h at 4°C; washes with 200 μg/ml ethidium bromide; normal IgG as control.

The target in assay [2] is endogenous ARD1 (human (endogenous in HEK 293T)). The assay is described as above.

For “endogenous ARD1 (human (endogenous in HEK 293T)) (enzyme)”, the binding entry in assay [1] is recorded as “binds”.

B1: endogenous Cdc25A (enzyme, UniProt P30304 1-524)
chain: MELGPEPPHRRRLLFACSPPPASQPVVKALFGASAAGGLSPVTNLTVTMDQLQGLGSDYEQPLEVKNNSNLQRMGSSESTDSGFCLDSPGPLDSKENLENPMRRIHSLPQKLLGCSPALKRSHSDSLDHDIFQLIDPDENKENEAFEFKKPVRPVSRGCLHSHGLQEGKDLFTQRQNSAPARMLSSNERDSSEPGNFIPLFTPQSPVTATLSDEDDGFVDLLDGENLKNEEETPSCMASLWTAPLVMRTTNLDNRCKLFDSPSLCSSSTRSVLKRPERSQEESPPGSTKRRKSMSGASPKESTNPEKAHETLHQSLSLASSPKGTIENILDNDPRDLIGDFSKGYLFHTVAGKHQDLKYISPEIMASVLNGKFANLIKEFVIIDCRYPYEYEGGHIKGAVNLHMEEEVEDFLLKKPIVPTDGKRVIVVFHCEFSSERGPRMCRYVRERDRLGNEYPKLHYPELYVLKGGYKEFFMKCQSYCEPPSYRPMHHEDFKEDLKKFRTKSRTWAGEKSKREMYSRLKKL
Regarding B1, the binding result in assay [2] is listed as “binds”.
